Experiment [1] has as its target MKP7-CD (F285D) (human) (UniProt Q9BY84). In words: SEC; Superdex-200 10/300, 10 mM HEPES pH 7.5, 150 mM NaCl, 2 mM dithiothreitol; 3 molar equivalents of the MKP domain mixed with 1 of JNK1; column calibrated with mass standards; fractions on SDS-PAGE, Coomassie; both purified.
Experiment [2] addresses MKP7 catalytic domain (MKP7-CD, residues 156-301) (human) (UniProt Q9BY84). The description is as above.

Substitutions are numbered along the chain they refer to. Numbers in names are those of the source. These are yes or no findings as the source states them, for the method shown.

B1: MKP7-CD (F285D) (domain or fragment, UniProt Q9BY84 156-301)
chain: NIGPTRILPNLYLGCQRDVLNKELMQQNGIGYVLNASNTCPKPDFIPESHFLRVPVNDSFCEKILPWLDKSVDFIEKAKASNGCVLVHCLAGISRSATIAIAYIMKRMDMSLDEAYRFVKEKRPTISPNDNFLGQLLDYEKKIKNQ
Regarding B1, in experiment [1], the binding entry is on record as “no binding”.

B2: MKP7 catalytic domain (MKP7-CD, residues 156-301) (domain or fragment, UniProt Q9BY84 156-301)
chain: B1 chain with D130F
Take B2: the binding result in experiment [2] is given as “no binding”.
